Results deposited as PubChem BioAssay AID1053208 (Peter MacCallum Cancer Centre, 2014).
In all, the deposit lists about 17,000 reagents; this is a random part of them. Of all reagents, 788 (4.7%) are marked active. 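Calls rest on z-score classes alone; an extra cut-off of viability at most 70% of control was not applied to them.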 Further read-outs or replicates are left out here.

- Purpose: 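Genes whose silencing cuts survival of bone tumour cells only with doxorubicin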 (primary screen)
- System: mouse osteosarcoma cells, early-passage culture from an engineered mouse model of fibroblastic bone tumour
- Reagent: siRNA pool against mouse genes, 40 nM
- Timing: about 120 h (48 h before drug, then 72 h with drug)
- Challenge: doxorubicin 100 nM for 72 h, roughly 30-40% inhibitory dose
- Read-out: 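Viability read as ATP luminescence after 72 h of 100 nM doxorubicin or none, duplicate wells averaged, scaled to non-targeting siRNA, then expressed as robust z-scores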
- Reading the numbers: viability z-score with doxorubicin: higher = more viable cells under doxorubicin; viability z-score without drug: higher = more viable cells with knock-down alone
- Call rule: 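Called active if knock-down leaves viability unchanged without drug (z within -2 to 2) but lowers it with doxorubicin (z at or under -2)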

{"gene symbol":"Brix1 (BRX1, biogenesis of ribosomes)","combined z-score class":"low cell count without drug only","viability z-score with doxorubicin":-0.9,"viability z-score without drug":-3.88,"Outcome":"inactive"}
{"gene symbol":"Nsmf","combined z-score class":"low cell count with doxorubicin only","viability z-score with doxorubicin":-2.36,"viability z-score without drug":-0.84,"Outcome":"active"}
{"gene symbol":"Or6c33 (olfactory receptor family 6 subfamily C member 33)","combined z-score class":"no change with or without drug","viability z-score with doxorubicin":1.12,"viability z-score without drug":-0.34,"Outcome":"inactive"}
{"gene symbol":"Slc15a2","combined z-score class":"no change with or without drug","viability z-score with doxorubicin":-0.34,"viability z-score without drug":1.52,"Outcome":"inactive"}
{"gene symbol":"Or8k37 (olfactory receptor family 8 subfamily K member 37)","combined z-score class":"no change with or without drug","viability z-score with doxorubicin":-0.22,"viability z-score without drug":-1.52,"Outcome":"inactive"}
{"gene symbol":"Tlr2 (toll-like receptor 2)","combined z-score class":"no change with or without drug","viability z-score with doxorubicin":0.9,"viability z-score without drug":0.84,"Outcome":"inactive"}
{"gene symbol":"Psen1 (presenilin 1)","combined z-score class":"no change with or without drug","viability z-score with doxorubicin":0.45,"viability z-score without drug":0.84,"Outcome":"inactive"}
{"gene symbol":"Uap1 (UDP-N-acetylglucosamine pyrophosphorylase 1)","combined z-score class":"high cell count with doxorubicin only","viability z-score with doxorubicin":2.14,"viability z-score without drug":1.01,"Outcome":"inactive"}
{"gene symbol":"Prpf6 (pre-mRNA splicing factor 6)","combined z-score class":"no change with or without drug","viability z-score with doxorubicin":1.8,"viability z-score without drug":0.17,"Outcome":"inactive"}
{"gene symbol":"Vmn1r75 (vomeronasal 1 receptor 75)","combined z-score class":"no change with or without drug","viability z-score with doxorubicin":0.56,"viability z-score without drug":0.51,"Outcome":"inactive"}
{"gene symbol":"Perm1 (PPARGC1 and ESRR induced regulator, muscle 1)","combined z-score class":"low cell count with doxorubicin only","viability z-score with doxorubicin":-3.82,"viability z-score without drug":-1.18,"Outcome":"active"}
{"gene symbol":"Pabpn1 (poly(A) binding protein, nuclear 1)","combined z-score class":"no change with or without drug","viability z-score with doxorubicin":-0.34,"viability z-score without drug":-1.18,"Outcome":"inactive"}
{"gene symbol":"Acad12 (acyl-Coenzyme A dehydrogenase family, member 12)","combined z-score class":"no change with or without drug","viability z-score with doxorubicin":-0.45,"viability z-score without drug":-0.17,"Outcome":"inactive"}
{"gene symbol":"H2-M1 (histocompatibility 2, M region locus 1)","combined z-score class":"no change with or without drug","viability z-score with doxorubicin":0.11,"viability z-score without drug":0.17,"Outcome":"inactive"}
{"gene symbol":"Tnc (tenascin C)","combined z-score class":"no change with or without drug","viability z-score with doxorubicin":-1.24,"viability z-score without drug":-0.17,"Outcome":"inactive"}
{"gene symbol":"Ccdc184 (coiled-coil domain containing 184)","combined z-score class":"no change with or without drug","viability z-score with doxorubicin":1.01,"viability z-score without drug":-0.34,"Outcome":"inactive"}

Next part; the last 2 above are carried over.
{"gene symbol":"Tnc (tenascin C)","combined z-score class":"no change with or without drug","viability z-score with doxorubicin":-1.24,"viability z-score without drug":-0.17,"Outcome":"inactive"}
{"gene symbol":"Ccdc184 (coiled-coil domain containing 184)","combined z-score class":"no change with or without drug","viability z-score with doxorubicin":1.01,"viability z-score without drug":-0.34,"Outcome":"inactive"}
{"gene symbol":"Opa3 (optic atrophy 3)","combined z-score class":"no change with or without drug","viability z-score with doxorubicin":-0.79,"viability z-score without drug":-1.18,"Outcome":"inactive"}
{"gene symbol":"Pkd2 (polycystin 2, transient receptor potential cation channel)","combined z-score class":"no change with or without drug","viability z-score with doxorubicin":0.45,"viability z-score without drug":-0.51,"Outcome":"inactive"}
{"gene symbol":"Ntng1 (netrin G1)","combined z-score class":"high cell count with doxorubicin only","viability z-score with doxorubicin":3.15,"viability z-score without drug":0.84,"Outcome":"inactive"}
{"gene symbol":"Ctsk (cathepsin K)","combined z-score class":"no change with or without drug","viability z-score with doxorubicin":-1.35,"viability z-score without drug":-0.84,"Outcome":"inactive"}
{"gene symbol":"Pcdha4 (protocadherin alpha 4)","combined z-score class":"no change with or without drug","viability z-score with doxorubicin":-1.12,"viability z-score without drug":0.84,"Outcome":"inactive"}
{"gene symbol":"Tmprss5 (transmembrane protease, serine 5 (spinesin))","combined z-score class":"no change with or without drug","viability z-score with doxorubicin":0.56,"viability z-score without drug":0.17,"Outcome":"inactive"}
{"gene symbol":"Cib2 (calcium and integrin binding family member 2)","combined z-score class":"no change with or without drug","viability z-score with doxorubicin":1.8,"viability z-score without drug":0.17,"Outcome":"inactive"}
{"gene symbol":"Gramd1b (GRAM domain containing 1B)","combined z-score class":"high cell count without drug only","viability z-score with doxorubicin":0.9,"viability z-score without drug":3.37,"Outcome":"inactive"}
{"gene symbol":"Itgb2l (integrin beta 2-like)","combined z-score class":"no change with or without drug","viability z-score with doxorubicin":-1.35,"viability z-score without drug":-0.84,"Outcome":"inactive"}
{"gene symbol":"Rps6ka5 (ribosomal protein S6 kinase A5)","combined z-score class":"no change with or without drug","viability z-score with doxorubicin":-0.11,"viability z-score without drug":-0.34,"Outcome":"inactive"}
{"gene symbol":"Sox15 (SRY (sex determining region Y)-box 15)","combined z-score class":"no change with or without drug","viability z-score with doxorubicin":0,"viability z-score without drug":1.01,"Outcome":"inactive"}
{"gene symbol":"Tfap2b (transcription factor AP-2 beta)","combined z-score class":"no change with or without drug","viability z-score with doxorubicin":0.22,"viability z-score without drug":0.84,"Outcome":"inactive"}
